In brackets after ≈: the same amount, converted by molar mass.

In the assay the test system is Aspergillus fumigatus. Nature of the assay: Antifungal activity against Aspergillus fumigatus HIC 6094. Type of assay: functional.

Turning to `C[C@@H]1[C@H](O)[C@@H](C)/C=C/C=C/C=C/C=C/C=C/C=C/C=C/[C@H](O[C@@H]2O[C@H](C)[C@@H](O)[C@H](N)[C@@H]2O)C[C@@H]2O[C@](O)(C[C@@H](O)C[C@@H](O)[C@H](O)CC[C@@H](O)C[C@@H](O)CC(=O)O[C@H]1C)C[C@H](O)[C@H]2C(=O)O` [AMPHOTERICIN B], the MIC is 1.56 µg/mL (≈ 1.69 µM).

Values taken from ChEMBL document CHEMBL1151987, “Glionitrin A, an antibiotic-antitumor metabolite derived from competitive interaction between abandoned mine microbes” (J Nat Prod, 2009).
